Measurements taken from publication PMC7413564, “Phase separation of Arabidopsis EMB1579 controls transcription, mRNA splicing, and development” (PLoS Biology, 2020).
No constants are given. Whether binding was seen depends on the method and setting. For some assays here: In cells and extracts the contact can be indirect. Some entries that bind do so weakly or less than the wild type. For some assays here: Where a sequence is shown, tags or fusion partners need not be part of it.

T1: pGBKT7-EMB1579 (Arabidopsis thaliana) (UniProt F4IS91)
T1 sequence: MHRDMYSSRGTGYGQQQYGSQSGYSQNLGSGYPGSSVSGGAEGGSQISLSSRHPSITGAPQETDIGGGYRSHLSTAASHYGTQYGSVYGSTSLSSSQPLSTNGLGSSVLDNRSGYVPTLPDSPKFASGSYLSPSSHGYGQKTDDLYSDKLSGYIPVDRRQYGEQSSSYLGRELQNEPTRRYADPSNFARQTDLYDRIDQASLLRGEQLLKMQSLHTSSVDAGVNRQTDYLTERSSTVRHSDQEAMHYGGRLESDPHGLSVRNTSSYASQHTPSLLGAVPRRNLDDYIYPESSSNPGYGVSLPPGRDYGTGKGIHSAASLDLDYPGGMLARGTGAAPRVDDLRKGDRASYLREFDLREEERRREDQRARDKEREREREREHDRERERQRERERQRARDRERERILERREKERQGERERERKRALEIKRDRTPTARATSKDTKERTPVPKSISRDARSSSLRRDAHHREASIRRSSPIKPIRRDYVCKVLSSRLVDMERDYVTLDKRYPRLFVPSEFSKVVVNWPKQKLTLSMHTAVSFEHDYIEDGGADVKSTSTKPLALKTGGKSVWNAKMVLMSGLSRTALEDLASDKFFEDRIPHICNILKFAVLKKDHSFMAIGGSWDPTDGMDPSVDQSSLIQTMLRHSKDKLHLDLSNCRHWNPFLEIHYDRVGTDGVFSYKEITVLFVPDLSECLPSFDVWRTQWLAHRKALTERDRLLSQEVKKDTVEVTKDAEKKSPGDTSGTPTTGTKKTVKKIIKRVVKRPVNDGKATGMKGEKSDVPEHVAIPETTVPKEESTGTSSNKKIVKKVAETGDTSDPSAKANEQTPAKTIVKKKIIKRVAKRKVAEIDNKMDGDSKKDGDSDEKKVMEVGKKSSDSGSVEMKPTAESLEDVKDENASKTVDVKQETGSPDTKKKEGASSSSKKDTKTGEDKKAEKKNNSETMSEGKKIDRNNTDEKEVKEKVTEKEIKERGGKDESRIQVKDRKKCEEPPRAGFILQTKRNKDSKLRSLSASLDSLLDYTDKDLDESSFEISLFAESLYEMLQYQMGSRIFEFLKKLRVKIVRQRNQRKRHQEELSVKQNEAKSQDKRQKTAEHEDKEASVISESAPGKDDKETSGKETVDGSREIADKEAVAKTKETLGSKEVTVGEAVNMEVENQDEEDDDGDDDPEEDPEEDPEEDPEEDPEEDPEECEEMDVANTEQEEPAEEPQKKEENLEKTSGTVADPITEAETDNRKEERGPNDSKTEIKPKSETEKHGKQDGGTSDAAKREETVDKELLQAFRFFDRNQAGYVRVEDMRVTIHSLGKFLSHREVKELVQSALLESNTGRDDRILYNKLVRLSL

T2: EMB1579-NLuc (Arabidopsis thaliana) (UniProt F4IS91)
T2 sequence: T1 sequence

B1: pGADT7-FIE (protein, UniProt Q9LT47 1-369)
chain: MSKITLGNESIVGSLTPSNKKSYKVTNRIQEGKKPLYAVVFNFLDARFFDVFVTAGGNRITLYNCLGDGAISALQSYADEDKEESFYTVSWACGVNGNPYVAAGGVKGIIRVIDVNSETIHKSLVGHGDSVNEIRTQPLKPQLVITASKDESVRLWNVETGICILIFAGAGGHRYEVLSVDFHPSDIYRFASCGMDTTIKIWSMKEFWTYVEKSFTWTDDPSKFPTKFVQFPVFTASIHTNYVDCNRWFGDFILSKSVDNEILLWEPQLKENSPGEGASDVLLRYPVPMCDIWFIKFSCDLHLSSVAIGNQEGKVYVWDLKSCPPVLITKLSHNQSKSVIRQTAMSVDGSTILACCEDGTIWRWDVITK
B2: pGADT7-CLF (protein, UniProt P93831 1-902)
chain: MASEASPSSSATRSEPPKDSPAEERGPASKEVSEVIESLKKKLAADRCISIKKRIDENKKNLFAITQSFMRSSMERGGSCKDGSDLLVKRQRDSPGMKSGIDESNNNRYVEDGPASSGMVQGSSVPVKISLRPIKMPDIKRLSPYTTWVFLDRNQRMTEDQSVVGRRRIYYDQTGGEALICSDSEEEAIDDEEEKRDFLEPEDYIIRMTLEQLGLSDSVLAELASFLSRSTSEIKARHGVLMKEKEVSESGDNQAESSLLNKDMEGALDSFDNLFCRRCLVFDCRLHGCSQDLIFPAEKPAPWCPPVDENLTCGANCYKTLLKSGRFPGYGTIEGKTGTSSDGAGTKTTPTKFSSKLNGRKPKTFPSESASSNEKCALETSDSENGLQQDTNSDKVSSSPKVKGSGRRVGRKRNKNRVAERVPRKTQKRQKKTEASDSDSIASGSCSPSDAKHKDNEDATSSSQKHVKSGNSGKSRKNGTPAEVSNNSVKDDVPVCQSNEVASELDAPGSDESLRKEEFMGETVSRGRLATNKLWRPLEKSLFDKGVEIFGMNSCLIARNLLSGFKSCWEVFQYMTCSENKASFFGGDGLNPDGSSKFDINGNMVNNQVRRRSRFLRRRGKVRRLKYTWKSAAYHSIRKRITEKKDQPCRQFNPCNCKIACGKECPCLLNGTCCEKYCGCPKSCKNRFRGCHCAKSQCRSRQCPCFAADRECDPDVCRNCWVIGGDGSLGVPSQRGDNYECRNMKLLLKQQQRVLLGISDVSGWGAFLKNSVSKHEYLGEYTGELISHKEADKRGKIYDRENCSFLFNLNDQFVLDAYRKGDKLKFANHSPEPNCYAKVIMVAGDHRVGIFAKERILAGEELFYDYRYEPDRAPAWAKKPEAPGSKKDENVTPSVGRPKKLA
B3: pGADT7-MSI4 (protein, UniProt O22607 1-507)
chain: MESDEAAAVSPQATTPSGGTGASGPKKRGRKPKTKEDSQTPSSQQQSDVKMKESGKKTQQSPSVDEKYSQWKGLVPILYDWLANHNLVWPSLSCRWGPQLEQATYKNRQRLYLSEQTDGSVPNTLVIANCEVVKPRVAAAEHISQFNEEARSPFVKKYKTIIHPGEVNRIRELPQNSKIVATHTDSPDVLIWDVETQPNRHAVLGAANSRPDLILTGHQDNAEFALAMCPTEPFVLSGGKDKSVVLWSIQDHITTIGTDSKSSGSIIKQTGEGTDKNESPTVGPRGVYHGHEDTVEDVAFSPTSAQEFCSVGDDSCLILWDARTGTNPVTKVEKAHDADLHCVDWNPHDDNLILTGSADNTVRLFDRRKLTANGVGSPIYKFEGHKAAVLCVQWSPDKSSVFGSSAEDGLLNIWDYDRVSKKSDRAAKSPAGLFFQHAGHRDKVVDFHWNASDPWTIVSVSDDCETTGGGGTLQIWRMSDLIYRPEEEVVAELEKFKSHVMTCASKP
B4: CLuc-UAP56A (protein, UniProt Q56XG6 1-427)
chain: MGDARDNEAYEEELLDYEEEDEKVPDSGNKVNGEAVKKGYVGIHSSGFRDFLLKPELLRAIVDSGFEHPSEVQHECIPQAILGMDVICQAKSGMGKTAVFVLSTLQQIEPSPGQVSALVLCHTRELAYQICNEFVRFSTYLPDTKVSVFYGGVNIKIHKDLLKNECPHIVVGTPGRVLALAREKDLSLKNVRHFILDECDKMLESLDMRRDVQEIFKMTPHDKQVMMFSATLSKEIRPVCKKFMQDPMEIYVDDEAKLTLHGLVQHYIKLSEMEKNRKLNDLLDALDFNQVVIFVKSVSRAAELNKLLVECNFPSICIHSGMSQEERLTRYKSFKEGHKRILVATDLVGRGIDIERVNIVINYDMPDSADTYLHRVGRAGRFGTKGLAITFVASASDSEVLNQVQERFEVDIKELPEQIDTSTYMPS
B5: CLuc-FIE (protein, UniProt Q9LT47 1-369)
chain: B1 chain
B6: CLuc-SKIP (protein, UniProt O80653 1-613)
chain: MKSLNDLPAPKSTTTTYYDHSNDAWFKNRVTESETVKSSSIKFKVVPAYLNRQGLRPKNPEDFGDGGAFPEIHLPQYPLLMGKNKSNKPGAKTLPVTVDAQGNVVFDAIVRQNENSRKIVYSQHKDIIPKFLKNEGDLGTVVDEEEELQKEIQETAEETKAAIEKIVNVRLSAAQPSNIARQSGDSQYIKYKPSQQSSAFNSGAKERIIRMVEMPVDPLDPPKFKHKRVPRASGSPPVPVMHSPPRPVTVKDQQDWKIPPCISNWKNPKGYTIPLDKRLAADGRGLQDVQINDNFAKLSEALYVAEQKAREAVSMRSKVQKEMVMKDKERKEQELRALAQKARSERTGAAMSMPVSSDRGRSESVDPRGDYDNYDQDRGREREREEPQETREEREKRIQREKIREERRRERERERRLDAKDAAMGKKSKITRDRDRDISEKVALGMASTGGKGGGEVMYDQRLFNQDKGMDSGFAADDQYNLYDKGLFTAQPTLSTLYKPKKDNDEEMYGNADEQLDKIKNTERFKPDKAFTGASERVGSKRDRPVEFEKEEEQDPFGLEKWVSDLKKGKKPLDKIGSGGTMRASGGGGSSSRDDDHGGSGRTKINFERSDRR
B7: CLuc-CLF (protein, UniProt P93831 1-902)
chain: B2 chain
B8: CLuc-SC35 (protein, UniProt Q9FMG4 1-303)
chain: MSHFGRSGPPDISDTYSLLVLNITFRTTADDLYPLFAKYGKVVDVFIPRDRRTGDSRGFAFVRYKYKDEAHKAVERLDGRVVDGREITVQFAKYGPNAEKISKGRVVEPPPKSRRSRSRSPRRSRSPRRSRSPPRRRSPRRSRSPRRRSRDDYREKDYRKRSRSRSYDRRERHEEKDRDHRRRTRSRSASPDEKRRVRGRYDNESRSHSRSLSASPARRSPRSSSPQKTSPAREVSPDKRSNERSPSPRRSLSPRSPALQKASPSKEMSPERRSNERSPSPGSPAPLRKVDAASRSQSPYAAE

molecular target: T1, pGBKT7-EMB1579 (Arabidopsis thaliana); test: two-hybrid; yeast two-hybrid, pGBKT7 bait and pGADT7 prey in S. cerevisiae strain Gold; growth on SD/-His/-Leu/-Trp/-Ade at 30°C for 3 days

| binding | Binder |
| --- | --- |
| no binding | B1 |
| no binding | B2 |
| binds | B3 |

molecular target: T2, EMB1579-NLuc (Arabidopsis thaliana); test: split reporter; firefly split luciferase complementation imaging; NLuc and CLuc fusions co-infiltrated by Agrobacterium into N. benthamiana leaves, 60 hours, 1 mM D-luciferin

| binding | Binder |
| --- | --- |
| binds | B4 |
| no binding | B5 |
| binds | B6 |
| no binding | B7 |
| binds | B8 |
